Results: the supplement of paper PMC10849652
Some of the results follow. Residues, ends and D or L forms follow the SMILES beside them. *: point of attachment. Cbz = O=C(OCc1ccccc1)*

Amino acid sequences for entries named in this document (tags omitted). A change or cut given only in a name is not applied to a line headed by its entry.
UniProt Q5JS37: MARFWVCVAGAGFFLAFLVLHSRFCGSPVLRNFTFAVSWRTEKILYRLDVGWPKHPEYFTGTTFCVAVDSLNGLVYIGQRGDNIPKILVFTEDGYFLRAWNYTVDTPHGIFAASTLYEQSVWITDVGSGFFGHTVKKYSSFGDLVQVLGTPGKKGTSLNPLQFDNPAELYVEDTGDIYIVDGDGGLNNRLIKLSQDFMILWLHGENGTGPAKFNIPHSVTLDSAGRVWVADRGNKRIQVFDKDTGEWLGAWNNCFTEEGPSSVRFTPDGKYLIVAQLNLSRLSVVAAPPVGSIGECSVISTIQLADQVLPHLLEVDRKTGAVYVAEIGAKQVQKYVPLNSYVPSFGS
UniProt Q9BXD5: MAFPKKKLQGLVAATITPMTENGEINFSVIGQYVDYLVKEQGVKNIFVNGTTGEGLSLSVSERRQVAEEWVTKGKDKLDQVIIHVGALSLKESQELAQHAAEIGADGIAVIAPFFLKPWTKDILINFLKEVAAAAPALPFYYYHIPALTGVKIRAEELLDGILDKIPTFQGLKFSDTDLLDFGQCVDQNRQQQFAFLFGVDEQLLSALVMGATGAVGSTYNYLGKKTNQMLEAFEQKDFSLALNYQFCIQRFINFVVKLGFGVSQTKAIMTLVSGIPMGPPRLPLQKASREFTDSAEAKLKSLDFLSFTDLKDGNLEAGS
UniProt O60551: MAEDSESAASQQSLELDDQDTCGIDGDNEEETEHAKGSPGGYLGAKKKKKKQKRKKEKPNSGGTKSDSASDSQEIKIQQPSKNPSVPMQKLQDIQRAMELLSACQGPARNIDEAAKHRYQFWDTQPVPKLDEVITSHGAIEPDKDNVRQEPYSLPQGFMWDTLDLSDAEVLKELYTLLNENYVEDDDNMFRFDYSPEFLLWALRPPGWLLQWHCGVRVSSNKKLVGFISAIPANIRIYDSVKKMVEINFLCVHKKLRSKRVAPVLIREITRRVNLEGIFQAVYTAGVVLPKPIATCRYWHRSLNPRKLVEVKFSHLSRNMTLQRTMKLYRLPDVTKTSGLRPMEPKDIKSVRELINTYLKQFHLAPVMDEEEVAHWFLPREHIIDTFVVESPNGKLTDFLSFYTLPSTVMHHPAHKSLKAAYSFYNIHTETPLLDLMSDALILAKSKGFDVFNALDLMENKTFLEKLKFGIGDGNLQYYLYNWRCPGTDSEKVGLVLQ
UniProt Q15738: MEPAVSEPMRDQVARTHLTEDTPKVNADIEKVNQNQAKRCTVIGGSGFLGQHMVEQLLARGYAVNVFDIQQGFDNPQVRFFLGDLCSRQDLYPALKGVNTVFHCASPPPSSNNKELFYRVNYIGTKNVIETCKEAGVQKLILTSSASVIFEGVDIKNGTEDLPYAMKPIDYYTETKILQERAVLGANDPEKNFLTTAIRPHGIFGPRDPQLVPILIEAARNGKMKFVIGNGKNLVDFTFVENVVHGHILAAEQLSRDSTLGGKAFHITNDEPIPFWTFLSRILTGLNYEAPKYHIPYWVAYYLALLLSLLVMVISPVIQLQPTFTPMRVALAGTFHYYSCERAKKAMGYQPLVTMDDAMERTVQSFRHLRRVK
UniProt Q13469: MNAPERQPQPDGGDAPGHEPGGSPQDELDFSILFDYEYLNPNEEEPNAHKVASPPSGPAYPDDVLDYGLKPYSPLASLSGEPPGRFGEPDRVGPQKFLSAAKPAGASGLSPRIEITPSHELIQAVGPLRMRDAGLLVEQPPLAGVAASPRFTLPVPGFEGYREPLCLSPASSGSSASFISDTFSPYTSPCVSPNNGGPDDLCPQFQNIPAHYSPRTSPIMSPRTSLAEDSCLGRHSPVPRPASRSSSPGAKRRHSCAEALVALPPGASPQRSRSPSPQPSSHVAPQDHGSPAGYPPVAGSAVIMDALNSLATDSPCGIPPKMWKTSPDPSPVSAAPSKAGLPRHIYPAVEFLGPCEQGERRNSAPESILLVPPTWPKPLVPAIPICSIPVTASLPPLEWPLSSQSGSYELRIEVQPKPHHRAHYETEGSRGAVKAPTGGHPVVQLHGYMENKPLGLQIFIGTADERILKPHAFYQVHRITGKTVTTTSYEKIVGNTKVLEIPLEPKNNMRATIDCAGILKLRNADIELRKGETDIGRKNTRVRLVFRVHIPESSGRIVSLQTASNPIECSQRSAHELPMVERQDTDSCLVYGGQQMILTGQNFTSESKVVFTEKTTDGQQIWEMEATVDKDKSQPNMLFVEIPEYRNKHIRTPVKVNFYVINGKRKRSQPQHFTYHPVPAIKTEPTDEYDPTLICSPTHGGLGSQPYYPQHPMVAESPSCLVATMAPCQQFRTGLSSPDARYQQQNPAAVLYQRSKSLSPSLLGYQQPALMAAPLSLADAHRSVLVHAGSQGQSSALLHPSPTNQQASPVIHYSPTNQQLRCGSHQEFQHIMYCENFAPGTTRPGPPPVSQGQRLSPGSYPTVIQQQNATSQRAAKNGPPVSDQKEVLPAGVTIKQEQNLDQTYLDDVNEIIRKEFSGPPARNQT
UniProt Q13232: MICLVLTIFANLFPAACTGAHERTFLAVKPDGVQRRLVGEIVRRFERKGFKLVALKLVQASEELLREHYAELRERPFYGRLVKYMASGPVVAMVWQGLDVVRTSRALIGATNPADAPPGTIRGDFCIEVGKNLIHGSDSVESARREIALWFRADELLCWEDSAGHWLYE
UniProt Q8NCF5: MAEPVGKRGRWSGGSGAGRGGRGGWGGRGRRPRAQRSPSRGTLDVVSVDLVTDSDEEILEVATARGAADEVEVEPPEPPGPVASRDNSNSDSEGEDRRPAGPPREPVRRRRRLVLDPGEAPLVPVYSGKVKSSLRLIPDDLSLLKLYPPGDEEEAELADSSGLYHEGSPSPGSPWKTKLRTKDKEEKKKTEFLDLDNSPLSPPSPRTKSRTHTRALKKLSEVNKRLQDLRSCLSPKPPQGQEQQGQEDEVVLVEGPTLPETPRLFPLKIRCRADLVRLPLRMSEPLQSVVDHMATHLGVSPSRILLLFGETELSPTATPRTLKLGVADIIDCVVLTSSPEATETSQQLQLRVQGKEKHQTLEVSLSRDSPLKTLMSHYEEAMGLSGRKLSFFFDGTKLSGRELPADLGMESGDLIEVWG
UniProt O75414: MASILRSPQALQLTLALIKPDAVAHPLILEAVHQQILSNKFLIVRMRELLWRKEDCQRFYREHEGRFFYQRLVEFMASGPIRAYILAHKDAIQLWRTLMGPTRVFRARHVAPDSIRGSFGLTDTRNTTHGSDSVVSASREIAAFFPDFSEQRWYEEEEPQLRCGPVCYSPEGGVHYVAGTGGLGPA
UniProt Q9Y314: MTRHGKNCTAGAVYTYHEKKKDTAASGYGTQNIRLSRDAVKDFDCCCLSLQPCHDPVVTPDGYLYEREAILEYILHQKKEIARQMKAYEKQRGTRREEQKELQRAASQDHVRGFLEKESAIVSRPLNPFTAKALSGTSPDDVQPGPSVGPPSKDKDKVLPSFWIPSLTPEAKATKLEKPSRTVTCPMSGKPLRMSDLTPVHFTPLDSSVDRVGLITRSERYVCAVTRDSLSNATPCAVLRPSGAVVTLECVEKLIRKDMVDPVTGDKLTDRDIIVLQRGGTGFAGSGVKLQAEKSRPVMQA
UniProt O75323: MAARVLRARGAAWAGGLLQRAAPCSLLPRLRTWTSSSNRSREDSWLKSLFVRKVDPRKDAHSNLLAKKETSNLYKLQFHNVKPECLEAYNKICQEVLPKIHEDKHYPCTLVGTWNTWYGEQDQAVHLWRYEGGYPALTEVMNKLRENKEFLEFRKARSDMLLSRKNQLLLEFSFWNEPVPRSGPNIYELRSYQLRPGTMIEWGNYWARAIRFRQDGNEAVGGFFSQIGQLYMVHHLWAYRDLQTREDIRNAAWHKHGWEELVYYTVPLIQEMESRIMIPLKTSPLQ
UniProt O94916: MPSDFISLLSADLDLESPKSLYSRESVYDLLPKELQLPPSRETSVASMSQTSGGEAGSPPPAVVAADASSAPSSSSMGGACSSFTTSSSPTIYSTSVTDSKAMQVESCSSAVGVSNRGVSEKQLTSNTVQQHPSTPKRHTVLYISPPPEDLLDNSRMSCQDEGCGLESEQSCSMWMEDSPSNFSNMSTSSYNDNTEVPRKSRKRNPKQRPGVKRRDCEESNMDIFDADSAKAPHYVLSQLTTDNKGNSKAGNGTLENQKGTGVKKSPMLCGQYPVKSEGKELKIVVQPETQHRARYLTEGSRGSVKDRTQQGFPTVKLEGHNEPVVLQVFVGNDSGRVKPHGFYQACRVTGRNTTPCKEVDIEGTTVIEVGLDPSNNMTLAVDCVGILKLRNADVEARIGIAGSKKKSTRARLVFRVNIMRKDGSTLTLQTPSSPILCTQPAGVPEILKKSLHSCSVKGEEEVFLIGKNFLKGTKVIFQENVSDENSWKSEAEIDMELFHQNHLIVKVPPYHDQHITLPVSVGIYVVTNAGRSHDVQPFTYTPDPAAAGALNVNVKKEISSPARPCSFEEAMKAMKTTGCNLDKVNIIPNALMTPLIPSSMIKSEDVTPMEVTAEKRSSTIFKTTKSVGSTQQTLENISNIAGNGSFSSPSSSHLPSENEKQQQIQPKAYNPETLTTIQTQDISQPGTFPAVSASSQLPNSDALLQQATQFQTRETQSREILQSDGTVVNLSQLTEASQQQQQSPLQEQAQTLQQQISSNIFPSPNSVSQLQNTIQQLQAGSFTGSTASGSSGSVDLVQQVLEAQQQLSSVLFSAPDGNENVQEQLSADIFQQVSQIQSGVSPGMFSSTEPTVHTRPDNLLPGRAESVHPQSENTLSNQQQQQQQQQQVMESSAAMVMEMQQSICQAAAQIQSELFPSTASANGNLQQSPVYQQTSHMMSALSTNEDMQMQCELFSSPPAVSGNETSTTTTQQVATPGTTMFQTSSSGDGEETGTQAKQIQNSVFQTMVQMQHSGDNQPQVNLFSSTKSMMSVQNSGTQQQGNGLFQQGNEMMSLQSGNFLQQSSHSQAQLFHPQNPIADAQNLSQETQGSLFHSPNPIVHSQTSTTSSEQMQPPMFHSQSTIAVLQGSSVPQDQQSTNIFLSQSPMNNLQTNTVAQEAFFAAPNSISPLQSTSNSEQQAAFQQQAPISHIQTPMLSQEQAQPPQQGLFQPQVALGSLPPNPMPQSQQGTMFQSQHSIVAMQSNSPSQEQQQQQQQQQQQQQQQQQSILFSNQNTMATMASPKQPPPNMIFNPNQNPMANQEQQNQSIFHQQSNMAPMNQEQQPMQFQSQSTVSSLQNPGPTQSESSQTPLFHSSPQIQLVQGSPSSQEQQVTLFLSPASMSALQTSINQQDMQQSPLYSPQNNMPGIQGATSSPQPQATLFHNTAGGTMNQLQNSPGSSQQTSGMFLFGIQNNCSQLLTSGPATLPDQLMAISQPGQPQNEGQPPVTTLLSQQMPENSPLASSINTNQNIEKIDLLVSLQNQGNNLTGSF
UniProt Q13423: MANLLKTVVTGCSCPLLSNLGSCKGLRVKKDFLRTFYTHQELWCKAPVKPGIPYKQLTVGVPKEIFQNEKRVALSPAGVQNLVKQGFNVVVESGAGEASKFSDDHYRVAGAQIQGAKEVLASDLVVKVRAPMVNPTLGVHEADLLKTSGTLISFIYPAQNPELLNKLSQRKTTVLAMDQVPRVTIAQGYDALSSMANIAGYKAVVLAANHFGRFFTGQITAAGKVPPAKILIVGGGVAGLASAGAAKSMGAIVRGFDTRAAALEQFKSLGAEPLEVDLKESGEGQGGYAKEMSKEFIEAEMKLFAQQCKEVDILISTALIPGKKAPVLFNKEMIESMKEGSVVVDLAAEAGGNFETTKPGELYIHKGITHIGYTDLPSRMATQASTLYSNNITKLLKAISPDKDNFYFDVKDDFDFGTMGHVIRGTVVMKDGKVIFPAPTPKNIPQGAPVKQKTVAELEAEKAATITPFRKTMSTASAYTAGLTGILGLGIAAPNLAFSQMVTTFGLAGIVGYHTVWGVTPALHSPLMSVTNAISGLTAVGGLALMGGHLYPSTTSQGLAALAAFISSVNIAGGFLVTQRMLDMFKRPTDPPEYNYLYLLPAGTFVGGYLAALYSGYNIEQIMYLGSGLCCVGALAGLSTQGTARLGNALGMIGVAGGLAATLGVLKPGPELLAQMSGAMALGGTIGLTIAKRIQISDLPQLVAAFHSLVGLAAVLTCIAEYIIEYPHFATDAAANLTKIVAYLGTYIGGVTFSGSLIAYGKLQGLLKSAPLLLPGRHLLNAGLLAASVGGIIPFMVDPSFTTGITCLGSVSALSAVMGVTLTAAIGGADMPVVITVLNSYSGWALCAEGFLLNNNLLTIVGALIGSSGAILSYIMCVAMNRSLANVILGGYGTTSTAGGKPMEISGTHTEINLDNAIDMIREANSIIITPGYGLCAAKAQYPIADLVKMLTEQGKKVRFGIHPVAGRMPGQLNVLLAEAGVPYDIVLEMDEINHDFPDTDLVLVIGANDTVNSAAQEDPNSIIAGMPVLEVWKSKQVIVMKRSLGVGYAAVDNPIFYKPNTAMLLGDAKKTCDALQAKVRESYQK

Assays:
Test in all cases: log2 fold change, soluble protein after heating vs DMSO (PISA); higher = thermal stabilisation; K562 cells, 10 uM, 30 min; active = over 0.2 and 3.5 SD of the protein, either way, in both replicates (recomputed)
erlotinib = compound: C#Cc1cccc(Nc2ncnc3cc(OCCOC)c(OCCOC)cc23)c1 [erlotinib]
How it was run: (§1)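 Aliquots of K562 cells (2×10^6 cells/mL) treated with 10 μM compound for 30 min were heated for 3 min over 48°C-58°C. After pooling and extraction in PBS with 0.5% NP-40 at 4°C, soluble protein from a 21,000xg, 90 min spin was quantified by TMTpro 16plex LC-MS/MS with channel sums equalised. Thermal stability is expressed against control samples, from duplicates, as a log2 fold change.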

[1] = compound: C/C(=N\NC(=O)C1=CC(=CC=C1)S(=O)(=O)N2CCOCC2)/C3=C(C=CC(=C3)Cl)O
How it was run: as §1

[2] = compound: C1=CC(=C(C=C1Cl)C2=NC3=NC=CN=C3C(=N2)NC4=CC=NC=C4)F
How it was run: as §1

[3] = compound: C1=CC(=CC=C1C2=NC3=C(N2)C=C(C=C3)C(=O)N)OC4=CC=C(C=C4)Cl
How it was run: as §1

[4] = compound: C1=CC2=C(C=CC(=C2)/C=C\3/C(=O)NC(=NCC4=CC=CS4)S3)N=C1
How it was run: as §1

[5] = compound: C1=CC2=NC=CN=C2C=C1/C=C/3\C(=O)NC(=O)S3
How it was run: as §1

[6] = compound: C1=CC=C(C=C1)C2=NC(=C(N2)C3=CC=NC=C3)C4=CC(=C(C=C4)Cl)O
How it was run: as §1

[7] = compound: C1=CC=C2C(=C1)C3=NNC4=CC=CC(=C43)C2=O
How it was run: as §1

[8] = compound: C1CCN(C1)C(=O)NC2=CC=CC(=C2)NC3=NC=C(C(=N3)NCCC4=CN=CN4)Br
How it was run: as §1

[9] = compound: C1CN(CCC1(CC2=CC=C(C=C2)Cl)N)C3=NC=NC4=C3C=CN4
How it was run: as §1

IRAK-1-4 Inhibitor I = compound: C1COCCN1CCN2C3=CC=CC=C3N=C2NC(=O)C4=CC(=CC=C4)[N+](=O)[O-] [IRAK-1-4 Inhibitor I]
How it was run: as §1

ibrutinib = compound: C=CC(=O)N1CCC[C@@H](n2nc(-c3ccc(Oc4ccccc4)cc3)c3c(N)ncnc32)C1 [ibrutinib]
How it was run: as §1

[10] = compound: CC(=O)c1cnc2ccc(-c3cc(Cl)c(O)c(Cl)c3)nc2c1N[C@H]1CC[C@H](CN(C)C)CC1
How it was run: as §1

ralimetinib = compound: CC(C)(C)Cn1c(N)nc2ccc(-c3[nH]c(C(C)(C)C)nc3-c3ccc(F)cc3)nc21 [ralimetinib]
How it was run: as §1

[11] = compound: CC(C)(O)CC(=O)NCCn1ccc2ncnc(Nc3ccc(Oc4cccc(C(F)(F)F)c4)c(Cl)c3)c21
How it was run: as §1

[12] = compound: CC(C)C1=C2N=C(C=C(N2N=C1)NCC3=CC=CC=C3)NCCCCCCN
How it was run: as §1

[13] = compound: CC(C)C[C@@H](C=O)NC(=O)[C@H](CC(C)C)NC(=O)[C@H](CC(C)C)NC(=O)OCc1ccccc1
How it was run: as §1

pinometostat = compound: CC(C)N(C[C@H]1O[C@@H](n2cnc3c(N)ncnc32)[C@H](O)[C@@H]1O)[C@H]1C[C@@H](CCc2nc3cc(C(C)(C)C)ccc3[nH]2)C1 [pinometostat]
How it was run: as §1

[14] = compound: CC1=C(C(CC(=O)N1)C2=CC=C(C=C2)C(F)(F)F)C(=O)NC3=C(C=C4C(=C3)C=NN4)F
How it was run: as §1

[15] = compound: CC1=C(C2=C(C=C1)C(=O)C3=CC=CC=C3N2CCCN)C
How it was run: as §1

Target	log2 fold change (erlotinib)	log2 fold change [1]	log2 fold change [2]	log2 fold change [3]	log2 fold change [4]	log2 fold change [5]	log2 fold change [6]	log2 fold change [7]	log2 fold change [8]	log2 fold change [9]	log2 fold change (IRAK-1-4 Inhibitor I)	log2 fold change (ibrutinib)	log2 fold change [10]	log2 fold change (ralimetinib)	log2 fold change [11]	log2 fold change [12]	log2 fold change [13]	log2 fold change (pinometostat)	log2 fold change [14]	log2 fold change [15]
NHLRC3 (UniProt Q5JS37)	inactive: -0.008	inactive: 0.172	inactive: -0.019	inactive: 0.045	inactive: 0.074	inactive: 0.014	inactive: -0.049	inactive: -0.138	inactive: 0.16	inactive: -0.147	inactive: -0.172	inactive: 0.083	inactive: 0.004	inactive: -0.08	inactive: 0.024	inactive: 0.048	inactive: -0.002	inactive: -0.112	inactive: 0.092	inactive: 0.04
NPL (UniProt Q9BXD5)	inactive: -0.001	inactive: 0.059	inactive: 0.018	inactive: 0.05	inactive: 0.167	inactive: -0.004	inactive: -0.029	inactive: -0.144	inactive: 0.069	inactive: 0.119	inactive: -0.089	inactive: 0.041	inactive: -0.006	inactive: 0.107	inactive: -0.013	inactive: 0.071	inactive: -0.129	inactive: 0.043	inactive: -0.038	inactive: -0.029
NOLC1 isoform 2 (UniProt Q14978)	inactive: 0.022	inactive: 0.036	inactive: -0.051	inactive: -0.005	inactive: -0.11	inactive: 0.024	inactive: -0.034	inactive: -0.171	inactive: -0.177	inactive: 0	inactive: -0.057	inactive: -0.089	active: -0.305	inactive: 0.041	inactive: 0.021	inactive: -0.015	inactive: -0.086	inactive: -0.011	–	active: -1.4
NMT2 (UniProt O60551)	inactive: 0.028	inactive: 0.031	inactive: 0.007	inactive: 0.004	inactive: 0.062	inactive: 0.032	inactive: -0.043	inactive: 0.021	inactive: 0.041	active: -0.369	inactive: 0.006	inactive: 0.064	inactive: -0.031	inactive: -0.017	inactive: -0.022	inactive: -0.125	inactive: -0.019	inactive: 0.053	–	inactive: 0.01
NSDHL (UniProt Q15738)	inactive: -0.007	inactive: 0.107	inactive: 0.047	inactive: 0.021	inactive: 0	inactive: -0.149	inactive: 0.065	inactive: 0.059	inactive: -0.039	inactive: -0.005	inactive: 0.004	inactive: 0.193	inactive: -0.049	inactive: -0.01	inactive: 0.173	inactive: -0.084	inactive: -0.024	inactive: -0.078	–	inactive: 0.056
NFATC2 (UniProt Q13469)	inactive: -0.049	inactive: 0.147	inactive: -0.002	inactive: 0.012	inactive: 0.04	inactive: -0.132	inactive: 0.053	inactive: -0.109	inactive: -0.201	inactive: 0.007	inactive: -0.075	inactive: -0.008	active: -0.635	inactive: -0.001	inactive: 0.011	inactive: -0.055	inactive: 0.099	inactive: 0.102	–	inactive: -0.033
NME3 (UniProt Q13232)	inactive: 0.033	inactive: -0.022	inactive: 0.075	inactive: 0.052	inactive: 0.034	inactive: 0.068	inactive: 0.009	inactive: -0.03	inactive: 0.008	inactive: 0.059	inactive: -0.014	inactive: 0.016	inactive: -0.005	inactive: -0.087	inactive: -0.01	inactive: 0.088	inactive: -0.025	inactive: -0.039	inactive: 0.01	inactive: -0.027
NFATC2IP (UniProt Q8NCF5)	inactive: -0.051	inactive: 0.131	inactive: -0.034	inactive: 0.014	inactive: 0.018	inactive: 0.085	inactive: -0.029	inactive: -0.014	inactive: -0.117	inactive: 0.061	inactive: -0.014	inactive: -0.036	inactive: -0.051	inactive: -0.003	inactive: -0.224	inactive: -0.161	inactive: -0.006	inactive: -0.032	–	inactive: -0.022
NGLY1 (UniProt Q96IV0)	inactive: 0.035	inactive: -0.06	inactive: -0.036	inactive: -0.014	inactive: 0.17	inactive: 0.023	inactive: -0.001	inactive: 0.045	inactive: -0.023	inactive: -0.024	inactive: -0.091	inactive: -0.052	inactive: -0.059	inactive: 0.018	inactive: -0.07	inactive: -0.071	inactive: 0.036	inactive: 0.088	–	inactive: 0.123
NOL12 (UniProt Q9UGY1)	inactive: -0.11	inactive: -0.102	inactive: -0.597	inactive: -0.006	inactive: -0.059	inactive: 0.073	inactive: -0.209	inactive: -0.018	inactive: 0.168	inactive: -0.171	inactive: -0.131	inactive: 0.053	inactive: 0.236	inactive: 0.135	inactive: 0.219	inactive: 0.146	inactive: 0.095	inactive: 0.21	inactive: -0.027	inactive: -0.55
NME6 (UniProt O75414)	inactive: 0.09	inactive: -0.071	inactive: 0.031	inactive: 0.037	inactive: 0.136	inactive: 0.074	inactive: 0.04	inactive: 0.034	inactive: -0.02	inactive: -0.073	inactive: 0.001	inactive: 0.022	inactive: -0.035	inactive: -0.087	inactive: -0.017	inactive: 0.026	inactive: 0.033	inactive: -0.06	inactive: 0.012	inactive: 0.086
NOSIP (UniProt Q9Y314)	inactive: 0.062	inactive: 0.16	inactive: 0.049	inactive: -0.05	inactive: -0.041	inactive: 0.039	inactive: -0.033	inactive: -0.03	inactive: -0.234	inactive: -0.249	inactive: -0.401	inactive: -0.032	inactive: -0.033	inactive: -0.065	inactive: -0.135	inactive: -0.106	inactive: -0.039	inactive: 0.085	–	inactive: 0.186
NIPSNAP2 (UniProt O75323)	inactive: 0.024	inactive: 0.065	inactive: 0.076	inactive: 0.106	inactive: 0.044	inactive: -0.079	inactive: 0.071	inactive: 0.041	inactive: 0.01	inactive: 0.007	inactive: 0.018	inactive: 0.115	inactive: -0.084	inactive: -0.054	inactive: 0.049	inactive: 0.014	inactive: -0.015	inactive: -0.034	–	inactive: 0.031
NFAT5 isoform 5 (UniProt O94916)	inactive: 0.001	inactive: 0.214	inactive: -0.12	inactive: 0.021	inactive: 0.15	inactive: 0.003	–	inactive: -0.129	inactive: 0.119	inactive: -0.01	inactive: -0.06	inactive: 0.037	inactive: 0.073	–	inactive: 0.044	inactive: -0.052	–	inactive: 0.045	inactive: -0.039	inactive: -0.152
NNT (UniProt Q13423)	inactive: -0.008	inactive: 0.051	inactive: 0.089	inactive: -0.012	inactive: 0.044	inactive: 0.01	inactive: 0.005	inactive: -0.005	inactive: -0.001	inactive: 0.043	inactive: 0.013	inactive: -0.018	inactive: -0.016	inactive: -0.099	inactive: -0.056	inactive: 0.016	inactive: -0.053	inactive: -0.029	–	inactive: 0.037
NISCH (UniProt Q9Y2I1)	inactive: 0.141	inactive: 0.1	inactive: -0.083	inactive: 0.026	inactive: 0.089	inactive: 0.068	inactive: 0.044	inactive: -0.144	inactive: 0.039	inactive: -0.032	inactive: 0.053	inactive: 0	inactive: -0.037	inactive: 0.02	inactive: 0.007	inactive: -0.429	inactive: 0.028	inactive: 0.047	–	inactive: 0.004

Two records picked at random from the list so far:
Target	log2 fold change (erlotinib)	log2 fold change [1]	log2 fold change [2]	log2 fold change [3]	log2 fold change [4]	log2 fold change [5]	log2 fold change [6]	log2 fold change [7]	log2 fold change [8]	log2 fold change [9]	log2 fold change (IRAK-1-4 Inhibitor I)	log2 fold change (ibrutinib)	log2 fold change [10]	log2 fold change (ralimetinib)	log2 fold change [11]	log2 fold change [12]	log2 fold change [13]	log2 fold change (pinometostat)	log2 fold change [14]	log2 fold change [15]
NNT (UniProt Q13423)	inactive: -0.008	inactive: 0.051	inactive: 0.089	inactive: -0.012	inactive: 0.044	inactive: 0.01	inactive: 0.005	inactive: -0.005	inactive: -0.001	inactive: 0.043	inactive: 0.013	inactive: -0.018	inactive: -0.016	inactive: -0.099	inactive: -0.056	inactive: 0.016	inactive: -0.053	inactive: -0.029	–	inactive: 0.037
NIPSNAP2 (UniProt O75323)	inactive: 0.024	inactive: 0.065	inactive: 0.076	inactive: 0.106	inactive: 0.044	inactive: -0.079	inactive: 0.071	inactive: 0.041	inactive: 0.01	inactive: 0.007	inactive: 0.018	inactive: 0.115	inactive: -0.084	inactive: -0.054	inactive: 0.049	inactive: 0.014	inactive: -0.015	inactive: -0.034	–	inactive: 0.031
